In assay [1] the target is HA-ZNF268a (human) (UniProt Q14587). Description: co-IP.
In assay [2] the target is Flag-tagged ZNF268a (human) (UniProt Q14587). The assay is described as follows: co-IP.
For assay [3] the target is unchanged. Description: co-IP; HEK293T cells transfected with Flag-ZNF268a for 24 h; IP with anti-Flag, immunoblot with antibody to endogenous TBK1.
Assay [4] addresses T1, HA-IRF3 (UniProt Q14653).
T1 sequence: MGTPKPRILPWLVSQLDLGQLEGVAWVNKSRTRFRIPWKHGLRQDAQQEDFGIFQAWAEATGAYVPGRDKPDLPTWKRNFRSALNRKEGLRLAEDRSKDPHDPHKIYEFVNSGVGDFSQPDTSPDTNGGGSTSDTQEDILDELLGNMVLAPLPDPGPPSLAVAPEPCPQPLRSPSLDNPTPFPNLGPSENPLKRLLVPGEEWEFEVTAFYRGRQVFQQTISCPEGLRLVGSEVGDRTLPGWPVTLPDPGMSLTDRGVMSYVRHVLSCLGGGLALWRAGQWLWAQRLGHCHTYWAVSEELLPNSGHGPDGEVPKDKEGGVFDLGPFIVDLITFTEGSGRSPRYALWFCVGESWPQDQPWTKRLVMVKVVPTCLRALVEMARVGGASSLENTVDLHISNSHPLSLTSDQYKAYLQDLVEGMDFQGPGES
The assay is described as follows: co-IP.

Protein sequences, listed by entry. Tags and fused reporters are not part of them.
UniProt Q14587: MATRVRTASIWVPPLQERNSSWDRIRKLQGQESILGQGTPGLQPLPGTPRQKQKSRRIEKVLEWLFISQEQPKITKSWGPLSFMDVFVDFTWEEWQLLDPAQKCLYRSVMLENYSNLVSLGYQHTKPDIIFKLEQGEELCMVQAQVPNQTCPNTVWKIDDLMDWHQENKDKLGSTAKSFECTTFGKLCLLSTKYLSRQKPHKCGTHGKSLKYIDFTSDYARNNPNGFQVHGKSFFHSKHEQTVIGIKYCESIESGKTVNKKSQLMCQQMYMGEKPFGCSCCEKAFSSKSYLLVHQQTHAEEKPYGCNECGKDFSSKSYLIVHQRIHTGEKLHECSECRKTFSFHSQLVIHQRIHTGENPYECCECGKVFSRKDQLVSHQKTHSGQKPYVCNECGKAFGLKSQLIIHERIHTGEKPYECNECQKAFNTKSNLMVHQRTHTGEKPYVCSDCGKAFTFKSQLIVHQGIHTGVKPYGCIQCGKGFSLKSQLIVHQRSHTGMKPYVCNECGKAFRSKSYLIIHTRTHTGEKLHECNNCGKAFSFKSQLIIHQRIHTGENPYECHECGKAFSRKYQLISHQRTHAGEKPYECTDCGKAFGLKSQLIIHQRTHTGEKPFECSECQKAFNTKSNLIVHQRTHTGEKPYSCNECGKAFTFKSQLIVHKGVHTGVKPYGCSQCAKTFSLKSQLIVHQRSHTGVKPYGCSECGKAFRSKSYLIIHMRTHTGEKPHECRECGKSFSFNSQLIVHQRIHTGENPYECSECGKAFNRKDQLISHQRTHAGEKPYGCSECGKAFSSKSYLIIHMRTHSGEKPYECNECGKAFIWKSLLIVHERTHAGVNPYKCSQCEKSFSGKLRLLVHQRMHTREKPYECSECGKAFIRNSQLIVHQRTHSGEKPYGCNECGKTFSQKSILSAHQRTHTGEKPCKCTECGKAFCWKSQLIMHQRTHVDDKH
UniProt Q7Z434: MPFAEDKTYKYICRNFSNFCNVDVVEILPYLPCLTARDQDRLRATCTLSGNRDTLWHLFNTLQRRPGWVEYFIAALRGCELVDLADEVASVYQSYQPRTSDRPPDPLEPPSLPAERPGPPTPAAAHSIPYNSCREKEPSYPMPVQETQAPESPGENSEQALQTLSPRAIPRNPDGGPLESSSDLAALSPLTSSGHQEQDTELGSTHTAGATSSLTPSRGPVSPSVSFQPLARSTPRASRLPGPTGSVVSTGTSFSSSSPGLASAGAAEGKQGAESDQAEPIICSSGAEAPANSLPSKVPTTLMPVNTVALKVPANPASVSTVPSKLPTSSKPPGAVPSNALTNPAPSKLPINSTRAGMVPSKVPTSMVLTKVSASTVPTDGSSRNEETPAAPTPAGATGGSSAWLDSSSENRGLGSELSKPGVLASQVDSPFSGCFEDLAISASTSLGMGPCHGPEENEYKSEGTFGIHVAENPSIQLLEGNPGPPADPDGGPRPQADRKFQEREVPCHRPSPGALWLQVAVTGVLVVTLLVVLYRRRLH

For assay [5], the target named is STING, Q86WV6. The assay is described as follows: co-IP; ZNF268a WT and KO HEK293T cells transfected with Flag-MAVS, STING or IRF3-2A; endogenous TBK1 blotted in lysates and immunoprecipitants. The following applies: remark: other sources report otherwise.
The target of assay [6] is HA-MAVS (UniProt Q7Z434). The assay is described as follows: co-IP.

Consider six molecules from paper PMC11406190.

Positions count from the first letter of the chain named. Names and notes keep the numbering of the source. No constants are given. Whether binding was seen depends on the method and setting. Binding seen in cells or lysates may run through a third protein. Some results given as binding are weak or reduced against the parent protein; the word gives no strength. For some of these results: Tags and fused reporters may be left off the sequences shown.

B1: Flag-SETD4 (enzyme, UniProt Q9NVD3 1-440)
chain: MQKGKGRTSRIRRRKLCGSSESRGVNESHKSEFIELRKWLKARKFQDSNLAPACFPGTGRGLMSQTSLQEGQMIISLPESCLLTTDTVIRSYLGAYITKWKPPPSPLLALCTFLVSEKHAGHRSLWKPYLEILPKAYTCPVCLEPEVVNLLPKSLKAKAEEQRAHVQEFFASSRDFFSSLQPLFAEAVDSIFSYSALLWAWCTVNTRAVYLRPRQRECLSAEPDTCALAPYLDLLNHSPHVQVKAAFNEETHSYEIRTTSRWRKHEEVFICYGPHDNQRLFLEYGFVSVHNPHACVYVSREILVKYLPSTDKQMDKKISILKDHGYIENLTFGWDGPSWRLLTALKLLCLEAEKFTCWKKVLLGEVISDTNEKTSLDIAQKICYYFIEETNAVLQKVSHMKDEKEALINQLTLVESLWTEELKILRASAETLHSLQTAFT
B1: in assay [1], the binding result was “binds”.

B2: HA-tagged TBK1 (enzyme, UniProt Q9UHD2 1-729)
chain: MQSTSNHLWLLSDILGQGATANVFRGRHKKTGDLFAIKVFNNISFLRPVDVQMREFEVLKKLNHKNIVKLFAIEEETTTRHKVLIMEFCPCGSLYTVLEEPSNAYGLPESEFLIVLRDVVGGMNHLRENGIVHRDIKPGNIMRVIGEDGQSVYKLTDFGAARELEDDEQFVSLYGTEEYLHPDMYERAVLRKDHQKKYGATVDLWSIGVTFYHAATGSLPFRPFEGPRRNKEVMYKIITGKPSGAISGVQKAENGPIDWSGDMPVSCSLSRGLQVLLTPVLANILEADQEKCWGFDQFFAETSDILHRMVIHVFSLQQMTAHKIYIHSYNTATIFHELVYKQTKIISSNQELIYEGRRLVLEPGRLAQHFPKTTEENPIFVVSREPLNTIGLIYEKISLPKVHPRYDLDGDASMAKAITGVVCYACRIASTLLLYQELMRKGIRWLIELIKDDYNETVHKKTEVVITLDFCIRNIEKTVKVYEKLMKINLEAAELGEISDIHTKLLRLSSSQGTIETSLQDIDSRLSPGGSLADAWAHQEGTHPKDRNVEKLQVLLNCMTEIYYQFKKDKAERRLAYNEEQIHKFDKQKLYYHATKAMTHFTDECVKKYEAFLNKSEEWIRKMLHLRKQLLSLTNQCFDIEEEVSKYQEYTNELQETLPQKMFTASSGIKHTMTPIYPSSNTLVEMTLGMKKLKEEMEGVVKELAENNHILERFGSLTMDGGLRNVDCL
Turning to B2, the binding result in assay [2] is on record as “binds”.

B3: endogenous TBK1 (enzyme, UniProt Q9UHD2 1-729)
chain: B2 chain
B3: in assay [3], the binding result was “binds”.

B4: Flag-TBK1 WT (enzyme, UniProt Q9UHD2 1-729)
chain: B2 chain
As to B4, the binding result in assay [4] is listed as “binds”.

B5: endogenous TBK1, Q9UHD2 1-729 (enzyme)
chain: B2 chain
For the molecule B5, the binding result in assay [5] is listed as “binds”.

B6: Flag-TBK1 K607A (enzyme, UniProt Q9UHD2 1-729)
chain: B2 chain with K607A
For the molecule B6, the binding entry in assay [4] and in assay [6] was “binds” in each case.
